The test system of the assay is PKHD1−/− organoids. As to conditions: CDH1+ tubules, flow, R-Naproxen 20 μM, 7 days from day 16 (FIG. 5G, 15). From the text: Data in all bar charts and dot plots are expressed as mean±s.d. Statistical analysis was done in GraphPad Prism 9, and statistical significance was attributed to values of P<0.05 as determined by one-way ANOVA with Tukey's multiple-comparisons test unless otherwise noted. Different significance levels (P values) are indicated in each figure with asterisks: *P<0.05, **P<0.01, ***P<0.001, and ****P<0.0001. […] FIG. 1F; n=74 LTL+ tubules with flow, n=66 LTL+ tubules in static culture, n=191 LTL+ tubules treated with forskolin, n=32 CDH1+ tubules with flow, n=27 CDH1+ tubules in static culture, and n=104 CDH1+ tubules treated with forskolin. FIG. 2C; n=16 tubules transfected with siControl, n=17 tubules transfected with siKIF3A. 8 organoids transfected with siControl, and 7 organoids transfected with siKIF3A from 2 independent chips were analyzed in FIG. 2C.

The text below walks through data of patent US20260345561A1, “METHODS AND COMPOSITIONS FOR USE IN TREATING AUTOSOMAL RECESSIVE POLYCYSTIC KIDNEY DISEASE (ARPKD)” (The General Hospital Corporation, priority 2022, published 2026).

Take `COc1ccc2cc([C@@H](C)C(=O)O)ccc2c1` [R-Naproxen]: the “apical redistribution of actin fiber” value is “ameliorated”.
